PubChem BioAssay AID292 (DTP/NCI, 2004)
The list shows only some results of the screen, not a fair sample: it is rich in T/C values a quarter to a half above the control, in often repeated tests (any T/C) and in doses without a T/C. Further doses and runs are listed elsewhere. T/C gives the treated animals as a percentage of the vehicle group. Some doses have a count of surviving animals in place of a T/C: the source files T/C as zero there, which appears to mark a toxic dose or a test without result, not a measured value. Some survivor counts are full or nearly so, which does not show that the dose was tolerated: survival well below the control is almost never listed, so the zero probably covers shortened survival too. Counts of survivors are from the toxicity check (mostly the fifth day) where no day follows; animals may have died later. Schedules are NCI's codes, read here as Q, the interval in days (D) or hours (H), X, the number of doses. Additions like (4×) stand for listed records that agree. Some doses were run more than once; the values are given in rising order. For survival time, this PubChem deposit counts one and a half times the control or more as active, and values a quarter to a half above the control carry no call in these data; other NCI protocols may use other cut-offs. Some T/C values carry the count of animals alive at the toxicity check (mostly the fifth day); where none is given, no animal had died by that day.

Tested on: B6C3F1 mice, ip Sarcoma M5076, median survival T/C
Assay: NCI In Vivo Anticancer Drug Screen. Data for tumor model Sarcoma M5076 (intraperitoneal) in B6C3F1 mice
Conditions: T/C endpoint: median survival time, schedule: Q04DX004 (ip), higher T/C = longer survival
In short: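 Mice carrying the transplanted tumour received compound treatment. Survival was recorded, and each value is the treated-group measurement divided by that of the vehicle-dosed control group.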

[1] = dose: 200.0 mg/kg/injection, vehicle: saline
[2] = dose: 100.0 mg/kg/injection, vehicle: Klucel (hydroxypropylcellulose) (HPC)
[3] = dose: 200.0 mg/kg/injection, vehicle: Klucel (hydroxypropylcellulose) (HPC)
[4] = dose: 800.0 mg/kg/injection, vehicle: Klucel (hydroxypropylcellulose) (HPC)
[5] = dose: 500.0 mg/kg/injection, vehicle: saline with Tween-80
[6] = dose: 400.0 mg/kg/injection, vehicle: Klucel (hydroxypropylcellulose) (HPC)
[7] = dose: 120.0 mg/kg/injection, vehicle: saline
[8] = dose: 100.0 mg/kg/injection, vehicle: saline
[9] = dose: 800.0 mg/kg/injection, vehicle: saline with Tween-80

**Q.** What does the source list for `COC1C(CO)OC(n2c3c(Cl)cccc3c3c4c(c5c6cccc(Cl)c6[nH]c5c32)C(=O)NC4=O)C(O)C1O` (centres undefined)?
**A.** T/C (dose: 50.0 mg/kg/injection, vehicle: distilled water + Tween-80): 128 % of control; T/C (dose: 187.0 mg/kg/injection, vehicle: distilled water + Tween-80): 126 % of control; T/C (dose: 200.0 mg/kg/injection, vehicle: distilled water + Tween-80): 136 % of control; T/C (dose: 400.0 mg/kg/injection, vehicle: distilled water + Tween-80): 132 and 136 % of control; survivor count (dose: 800.0 mg/kg/injection, vehicle: distilled water + Tween-80): 3 of 8 on day 14

**Q.** Which survivor count [1] does the source give for `COc1cc(C2=NCCc3cc4c(cc32)OCO4)cc(OC)c1OC` here?
**A.** 4 of 10 on day 14

**Q.** For `CCCCCn1c(C)cc(/C=C\c2ccc3cc(C)ccc3[n+]2C)c1C`, which survivor count (dose: 16.0 mg/kg/injection, vehicle: saline) is on record?
**A.** 5 of 10 on day 14

**Q.** How did the survivor count [2] turn out when `COc1cc2c(cc1OC)[C@@H]1C(=O)c3ccc4c(c3O[C@@H]1CO2)C[C@H](C(C)C)O4` was run?
**A.** 5 of 8 on day 14

**Q.** What about the survivor count [3] of the same molecule?
**A.** 0 of 8 on day 14

**Q.** `Oc1c(Cl)cc(Cl)cc1C=NCCSc1ccc(Cl)cc1` was tested. Which survivor count [4] did it give?
**A.** 0 of 10 on day 14

**Q.** Which results are given for `CC(C)NC(=O)OCc1c(COC(=O)NC(C)C)c(-c2ccc(Cl)c(Cl)c2)n2c1CCC2`?
**A.** survivor count [5]: 5 of 10 on day 14; survivor count (dose: 833.33 mg/kg/injection, vehicle: saline with Tween-80): 0 of 10 on day 14; survivor count (dose: 1200.0 mg/kg/injection, vehicle: saline with Tween-80): 1 of 10 on day 14

**Q.** Which results are given for `CN(C)CN1C(=O)S/C(=C2\C(=O)N(CN(C)C)c3ccccc32)C1=O`?
**A.** survivor count [6]: 0 of 10 on day 14; survivor count [4]: 0 of 10 on day 14

**Q.** Which T/C (dose: 6.0 mg/kg/injection, vehicle: saline) does the source give for `CCOC(=O)N(C)N=NC` here?
**A.** 133 % of control [9 of 10 alive on day 14]

**Q.** And the T/C (dose: 7.5 mg/kg/injection, vehicle: saline)?
**A.** 131 % of control

**Q.** And the T/C (dose: 15.0 mg/kg/injection, vehicle: saline)?
**A.** 140 % of control

**Q.** What about the survivor count [7] of the same molecule?
**A.** 3 of 10 on day 14

**Q.** `CN(C)N=Nc1ccccc1` was tested. Which T/C (dose: 12.5 mg/kg/injection, vehicle: Klucel (hydroxypropylcellulose) (HPC)) did it give?
**A.** 141 % of control

**Q.** What about the T/C (dose: 25.0 mg/kg/injection, vehicle: Klucel (hydroxypropylcellulose) (HPC)) of the same molecule?
**A.** 131 % of control

**Q.** What about the T/C (dose: 50.0 mg/kg/injection, vehicle: Klucel (hydroxypropylcellulose) (HPC)) of the same molecule?
**A.** 147 % of control

**Q.** And the survivor count [2]?
**A.** 4 of 10 on day 14

**Q.** And the survivor count [3]?
**A.** 0 of 10 on day 14 (2×)

**Q.** With `CSC1=NCc2c(sc3c2CCCC3)N1` as the molecule, how does the survivor count (dose: 600.0 mg/kg/injection, vehicle: Klucel (hydroxypropylcellulose) (HPC)) read?
**A.** 1 of 10 on day 14

**Q.** Which T/C (dose: 600.0 mg/kg/injection, vehicle: saline) does the source give for `CCOC(=O)C(N)CSC(=O)NC` (centres undefined) here?
**A.** 127 [9 of 10 alive on day 14] and 135 % of control [9 of 10 alive on day 14]

**Q.** And the survivor count (dose: 1000.0 mg/kg/injection, vehicle: saline)?
**A.** 0 of 10 on day 14 and 1 of 10 on day 14

**Q.** What about the survivor count (dose: 1666.67 mg/kg/injection, vehicle: saline) of the same molecule?
**A.** 0 of 10 on day 14

**Q.** What does the source list for `COc1ccc(N2CCCSC2=S)cc1`?
**A.** survivor count (dose: 125.0 mg/kg/injection, vehicle: saline + Tween-80 + alcohol): 10 of 10 on day 14; survivor count (dose: 250.0 mg/kg/injection, vehicle: saline + Tween-80 + alcohol): 10 of 10 on day 14; survivor count (dose: 500.0 mg/kg/injection, vehicle: saline + Tween-80 + alcohol): 2 of 10 on day 14

**Q.** Which results are given for `Cc1ccc(C2C(C#N)C(=O)NC(=O)C2C#N)cc1` (centres undefined)?
**A.** survivor count [6]: 5 of 10 on day 14; survivor count [4]: 0 of 10 on day 14

**Q.** Which T/C (dose: 16.0 mg/kg/injection, vehicle: saline with Tween-80) does the source give for `COC(C(=O)C(O)C(C)O)C1CC2C=C3C=C(OC4CC(OC5CC(O)C(OC)C(C)O5)C(OC(C)=O)C(C)O4)C(C)C(=O)C3=C(O)C2=C(O)C1OC1CC(OC2CC(OC3CC(C)(O)C(O)C(C)O3)C(O)C(C)O2)C(O)C(C)O1` (centres undefined) here?
**A.** 135 % of control [9 of 10 alive on day 14]

**Q.** And the survivor count (dose: 32.0 mg/kg/injection, vehicle: saline with Tween-80)?
**A.** 4 of 10 on day 14

**Q.** What about the survivor count (dose: 64.0 mg/kg/injection, vehicle: saline with Tween-80) of the same molecule?
**A.** 0 of 10 on day 14

**Q.** And the survivor count (dose: 128.0 mg/kg/injection, vehicle: saline with Tween-80)?
**A.** 0 of 10 on day 14

**Q.** And the survivor count (dose: 256.0 mg/kg/injection, vehicle: saline with Tween-80)?
**A.** 0 of 10 on day 14

**Q.** Which survivor count [6] does the source give for `CCNc1nc(NC(C)C)nc(-c2ccncc2)n1` here?
**A.** 0 of 10 on day 14

**Q.** `OCCN1CCN(CC/C=C2/c3ccccc3Sc3ccc(C(F)(F)F)cc32)CC1` was tested. Which survivor count [8] did it give?
**A.** 0 of 10 on day 14

**Q.** `O=NN(CCCl)C(=O)NCCCl` was tested. Which T/C (dose: 3.0 mg/kg/injection, vehicle: saline + alcohol, evaluated on day 60) did it give?
**A.** 134 % of control

**Q.** What about the T/C (dose: 3.0 mg/kg/injection, vehicle: saline + alcohol, evaluated on day 75) of the same molecule?
**A.** 131 % of control

**Q.** And the survivor count (dose: 48.0 mg/kg/injection, vehicle: saline + alcohol)?
**A.** 5 of 10 on day 14

**Q.** `COc1cc(NCc2ccc3nc(N)nc(N)c3c2C)cc(OC)c1OC` (tested in a mixture with another compound) was tested. Which survivor count (dose: 160.0 mg/kg/injection, vehicle: water) did it give?
**A.** 3 of 10 on day 14

**Q.** What does the source list for `C/C(=N\NC(=O)c1ccccc1O)c1cccc(/C(C)=N/NC(=O)c2ccccc2O)n1`?
**A.** survivor count (dose: 12.5 mg/kg/injection, vehicle: saline): 10 of 10 on day 14; T/C (dose: 12.5 mg/kg/injection, vehicle: suspension in saline): 132 % of control; T/C (dose: 50.0 mg/kg/injection, vehicle: suspension in saline): 130 % of control; survivor count [8]: 7 of 10 on day 14; survivor count [1]: 0 of 10 on day 14; survivor count (dose: 200.0 mg/kg/injection, vehicle: suspension in saline): 5 of 10 on day 14

**Q.** With `O=C[C@@H](CO)O[C@H](C=O)c1c[nH]c(=O)[nH]c1=O` as the molecule, how does the T/C (dose: 50.0 mg/kg/injection, vehicle: saline) read?
**A.** 129 and 139 % of control

**Q.** And the T/C (dose: 83.3 mg/kg/injection, vehicle: saline)?
**A.** 140 % of control [9 of 10 alive on day 14]

**Q.** And the survivor count [8]?
**A.** 10 of 10 on day 14

**Q.** And the survivor count [1]?
**A.** 0 of 10 on day 14 and 4 of 10 on day 14

**Q.** For `COc1cccc(C2C(C#N)C(=O)NC(=O)C2C#N)c1` (centres undefined), which survivor count [4] is on record?
**A.** 0 of 10 on day 14

**Q.** For `CC(C)NCC(O)CC(c1ccccc1)c1ccccc1` (centres undefined), which survivor count (dose: 200.0 mg/kg/injection, vehicle: saline with Tween-80) is on record?
**A.** 0 of 10 on day 14

**Q.** For `CN(C)CCNc1ccc(CO)c2sc3ccc(O)cc3c(=O)c12`, which T/C (dose: 50.0 mg/kg/injection, vehicle: saline with Tween-80) is on record?
**A.** 130 % of control

**Q.** And the T/C (dose: 100.0 mg/kg/injection, vehicle: saline with Tween-80)?
**A.** 136 % of control

**Q.** What about the survivor count (dose: 400.0 mg/kg/injection, vehicle: saline with Tween-80) of the same molecule?
**A.** 8 of 10 on day 14

**Q.** And the survivor count [9]?
**A.** 1 of 10 on day 14

**Q.** With `Cc1c(O)c2ccccc2c2c1sc(NCCCN(CCO)CCO)[n+]2C` as the molecule, how does the survivor count (dose: 60.0 mg/kg/injection, vehicle: saline) read?
**A.** 3 of 9 on day 14

**Q.** And the survivor count [7]?
**A.** 0 of 10 on day 14

**Q.** For `Cn1c(=S)[nH]n(CCOc2ccccc2)c1=S`, which survivor count [5] is on record?
**A.** 10 of 10 on day 14

**Q.** Which survivor count [9] does the source give for `CCOC(=O)C1=C(C)O/C(=C/c2cccc(Cl)c2)C1=O` here?
**A.** 0 of 10 on day 9
